Among all 330,000 compounds or so, about 7,700 (2.3%) were called active. The inconclusive results got no clear call from the source; some entries with a clear call stand among them for comparison. Calls follow the shape of the dose curve; as a rule, active = well fitted inhibition curve with a large enough effect; inconclusive = small, poorly fitted or top-dose-only effect, or effect the other way; inactive = flat fitted curve, though single readings scatter. Potencies beside an inconclusive call are fits to weak or partial responses and may not hold up.
Assay: qHTS screen for small molecules that inhibit ELG1-dependent DNA repair in human embryonic kidney (HEK293T) cells expressing luciferase-tagged ELG1; also: nearly all actives have a fitted effect of over 55% in size
Settings: HEK293T ELG1-luciferase reporter, luminescence, 16 h, DNA damage induced by 5-fluorouridine; series mostly up to 46.1 µM
Outline: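 Overnight (16 hr) co-exposure of 2,000 cells/well to 5-fluorouridine and compound at 37 °C preceded detection. Luciferase was quantified via ONE-Glo luminescence; loss of signal denotes inhibition.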
Potency is read from the fitted curve at half-maximal effect.

Question: For `COc1ccc2nc(N3CCCC(C(=O)NCCCN4CCN(C)CC4)C3)sc2c1` (stereo not drawn), which Potency is on record?
Answer: inconclusive: 32.6 µM [activator, single point]

Question: For `Cc1nn(CC(=O)N2CCc3ccccc3C2)c(C)c1Cl`, which Potency is on record?
Answer: inconclusive: 18.3 µM [activator, partial curve, poor fit]

Question: For `CC(C)Oc1ccc(C(=O)NCCNC(=O)c2ccco2)cc1`, which Potency is on record?
Answer: inconclusive: 20.6 µM [activator, single point]

Question: Which Potency does the source give for `COc1ccc2c(c1OC)C(=O)OC2Nc1nc(-c2ccc([N+](=O)[O-])cc2)cs1` (stereo not drawn) here?
Answer: inconclusive: 20.6 µM [activator, single point]

Question: Which Potency does the source give for `COc1ccc(Nc2nc(N)nc(CSc3nccc(C)n3)n2)cc1` here?
Answer: inconclusive: 1.3 µM [activator, partial curve, poor fit]

Question: For `Cc1cc(C)nc(NCC(O)CNc2ccccc2Cl)n1` (stereo not drawn), which Potency is on record?
Answer: inconclusive: 20.6 µM [inhibitor, partial curve, poor fit]

Question: Which Potency does the source give for `Cc1ccc(-c2nc(-c3ccncc3)no2)cc1` here?
Answer: inconclusive: 4.61 µM [activator, partial curve]

Question: With `CC(C)(C)NC(=O)NC(=O)CN1CCN(Cc2ccccc2)CC1` as the compound, how does the Potency read?
Answer: inactive

Question: With `CCCCNc1ccc2nsnc2c1[N+](=O)[O-]` as the compound, how does the Potency read?
Answer: inconclusive: 20.6 µM [activator, single point]

Question: For `Cc1ccc(C(C)C)c(OCC(=O)Nc2cccc(S(=O)(=O)NC3=NCCCCC3)c2)c1`, which Potency is on record?
Answer: active: 23.1 µM

Question: With `Cc1ccn2cc(-c3cccc(S(=O)(=O)N4CC(C)OC(C)C4)c3)nc2c1` (stereo not drawn) as the compound, how does the Potency read?
Answer: inactive

Question: Which Potency does the source give for `CC(=O)Cc1nsc(Nc2ccc(F)cc2)n1` here?
Answer: inconclusive: 14.6 µM [activator, partial curve]

Question: With `COc1ccccc1/C=C/C=N/NC(=O)Cc1cccs1` as the compound, how does the Potency read?
Answer: inconclusive: 18.4 µM [activator, single point]

Question: For `O=C(C1CCCN(S(=O)(=O)c2cccc3nonc23)C1)N1CCN(c2ccccc2)CC1` (stereo not drawn), which Potency is on record?
Answer: inconclusive: 18.4 µM [inhibitor, single point]

Question: With `O=C(CCSc1nc(-c2ccc3c(c2)OCO3)cc(C(F)(F)F)n1)NCc1ccccc1` as the compound, how does the Potency read?
Answer: inconclusive: 8.2 µM [inhibitor, partial curve, poor fit]

Question: Which Potency does the source give for `CC(C)C(OC(=O)CCC(=O)Nc1nccs1)C(=O)NC1CCCCC1` (stereo not drawn) here?
Answer: inconclusive: 20.6 µM [inhibitor, partial curve]

Question: Which Potency does the source give for `COc1ccccc1CNC(=O)c1cccc(NC(=O)c2ccccc2)c1` here?
Answer: inconclusive: 25.9 µM [inhibitor, single point]

Question: For `O=c1c2cccc3c2c(nn1CN1CCOCC1)-c1ccccc1-3`, which Potency is on record?
Answer: inconclusive: 16.4 µM [inhibitor, single point]

Question: For `COC(=O)c1cc(OC)c(OC)cc1NCC(=O)Nc1cccc(C(F)(F)F)c1`, which Potency is on record?
Answer: inconclusive: 29.1 µM [inhibitor, single point]

Question: For `Cc1ccc(-c2csc3nc(C)n(N)c(=O)c23)o1`, which Potency is on record?
Answer: inconclusive: 20.6 µM [activator, partial curve]

Question: With `COc1ccc(-c2csc(NC(=S)NC(=O)c3ccco3)n2)cc1` as the compound, how does the Potency read?
Answer: inconclusive: 23.1 µM [activator, single point]

Question: With `COc1cc2c(C(=O)O)c(C)n(-c3ccccc3)c2c2ccccc12` as the compound, how does the Potency read?
Answer: inconclusive: 5.8 µM [inhibitor, single point]

Question: For `Cc1ccc2cc(CN(CCCO)S(=O)(=O)c3ccccc3F)c(=O)[nH]c2c1C`, which Potency is on record?
Answer: inconclusive: 18.3 µM [inhibitor, partial curve, poor fit]

Question: Which Potency does the source give for `N#C/C(=C(/O)CN1C(=O)c2ccccc2C1=O)c1nc2ccccc2[nH]1` here?
Answer: inactive

Question: With `COc1ccccc1CNCC(O)Cn1c2ccccc2c2ccccc21` (stereo not drawn) as the compound, how does the Potency read?
Answer: inconclusive: 25.9 µM [inhibitor, single point]

Question: With `C=CCN(CC=C)S(=O)(=O)c1ccc(NC(=S)NC(=O)C2CC2)cc1` as the compound, how does the Potency read?
Answer: inconclusive: 23.1 µM [inhibitor, single point]

Question: For `COc1ccc(N2CCN(C(=O)CC(C)S(=O)(=O)c3ccc4c(c3)NC(=O)CO4)CC2)cc1` (stereo not drawn), which Potency is on record?
Answer: active: 13 µM

Question: With `O=Cc1cc2ccccc2nc1SCc1ccc(Cl)cc1` as the compound, how does the Potency read?
Answer: inconclusive: 6.51 µM [activator, partial curve, poor fit]

Question: With `CCc1sc(C(=O)N2CCc3ccccc32)cc1C` as the compound, how does the Potency read?
Answer: inconclusive: 2.59 µM [activator, full curve]

Question: With `CCc1ccc(-c2csc(NC(=O)C3CC(=O)N(c4ccc5c(c4)OCCO5)C3)n2)cc1` (stereo not drawn) as the compound, how does the Potency read?
Answer: inconclusive: 25.9 µM [inhibitor, partial curve]

Question: For `Cc1nn(C)cc1CNC(=O)Nc1cccc(Cl)c1`, which Potency is on record?
Answer: inconclusive: 20.6 µM [activator, partial curve]

Question: Which Potency does the source give for `CCCCn1nc(C(=O)NC2CCCCCC2)c2ccccc2c1=O` here?
Answer: active: 18.3 µM

Question: With `N#Cc1ccsc1NC(=O)COC(=O)c1ccc(Br)o1` as the compound, how does the Potency read?
Answer: inconclusive: 14.6 µM [activator, partial curve]

Question: For `CCSc1cc(C)nc2ncnn12`, which Potency is on record?
Answer: inconclusive: 29.1 µM [activator, partial curve, poor fit]

Question: With `CCOC(=O)c1sc(NC(=O)CSc2nncn2C)nc1C` as the compound, how does the Potency read?
Answer: inconclusive: 20.6 µM [activator, partial curve]

Question: For `CS(=O)(=O)N1CCC(C(=O)Nc2ccc(F)c(Cl)c2)CC1`, which Potency is on record?
Answer: inactive

Question: With `COc1cccc(N/C(SC)=C(/C#N)C(N)=O)c1` as the compound, how does the Potency read?
Answer: inconclusive: 16.4 µM [inhibitor, partial curve]

Question: For `Cc1cc(F)ccc1S(=O)(=O)Nc1ccccc1C(=O)Nc1ccccc1-c1nc2ccccc2[nH]1`, which Potency is on record?
Answer: inconclusive: 25.9 µM [inhibitor, single point]

Question: Which Potency does the source give for `O=C(c1cc(-c2ccc(O)cc2)on1)N1CCCCCC1` here?
Answer: inconclusive: 4.61 µM [activator, partial curve]

Question: For `COc1ccc(-c2cc(-c3nnc(COC(=O)CC4CCCC4)o3)c3ccccc3n2)cc1OC`, which Potency is on record?
Answer: active: 20.6 µM

Question: Which Potency does the source give for `Cc1[nH]c2ccccc2c1/C=N/NC(=O)c1cc(C(C)C)[nH]n1` here?
Answer: inconclusive: 20.6 µM [inhibitor, partial curve, poor fit]

Question: With `Cc1cccc(-n2cc(CNCCN3CCOC3=O)c(-c3cccc(F)c3)n2)c1` as the compound, how does the Potency read?
Answer: inactive

Question: For `COc1ccc(-n2c(SCC(=O)NCC3CCCO3)nc3c([nH]c4ccccc43)c2=O)cc1` (stereo not drawn), which Potency is on record?
Answer: inconclusive: 4.61 µM [inhibitor, full curve, poor fit]

Question: Which Potency does the source give for `NNC(=O)c1ccc(O)cc1O` here?
Answer: inconclusive: 5.8 µM [activator, partial curve]

Question: Which Potency does the source give for `COc1ccc(C2c3[nH]c4ccccc4c3C[C@H]3C(=O)N(C4CCN(Cc5ccccc5)CC4)CC(=O)N23)cc1OC` (stereo partly drawn) here?
Answer: inactive

Question: Which Potency does the source give for `CCCc1cc(=O)n2[nH]c(-c3ccc(Cl)cc3)cc2n1` here?
Answer: inconclusive: 11.6 µM [activator, partial curve]

Question: Which Potency does the source give for `COc1cccc(NC(=S)Nc2cc(C(=O)O)ccc2N2CC3CC(C2)c2cccc(=O)n2C3)c1` (stereo not drawn) here?
Answer: inconclusive: 4.11 µM [activator, single point]

Question: With `COc1nccc(C(F)(F)F)c1C(=O)Nc1ccc(Cl)cc1` as the compound, how does the Potency read?
Answer: inactive

Question: For `COC(=O)c1ccc(OC)c(CN2CCCN(Cc3cc(C)ccc3C)S2(=O)=O)c1`, which Potency is on record?
Answer: active: 14.6 µM

Question: With `Cc1ccc(NC(=O)COC(=O)C2CC(=O)N(Cc3ccccc3)C2)cc1F` (stereo not drawn) as the compound, how does the Potency read?
Answer: inactive

Question: With `CC1Sc2ccc(S(=O)(=O)CCC(=O)NCc3ccc(Cl)cc3)cc2NC1=O` (stereo not drawn) as the compound, how does the Potency read?
Answer: inconclusive: 32.6 µM [inhibitor, single point]

Question: Which Potency does the source give for `O=C(N/N=C/c1cc(Cl)cc([N+](=O)[O-])c1O)c1cccc(S(=O)(=O)N2CCOCC2)c1` here?
Answer: inactive

Question: For `CCCCNC(=O)c1sc2nc(C)cc(COC)c2c1-n1cccc1`, which Potency is on record?
Answer: inconclusive: 23.1 µM [inhibitor, partial curve, poor fit]

Question: For `C=C1N(c2cccc(Cl)c2)C(=O)OC1(C)C`, which Potency is on record?
Answer: inactive

Question: Which Potency does the source give for `CC(C)Oc1ccc(S(=O)(=O)N2CCOCC2)cc1NC(=O)CN1C(=O)NC2(CCCC2)C1=O` here?
Answer: inactive

Question: With `c1ccc(-c2nc(NC3CCCC3)c3ccccc3n2)cc1` as the compound, how does the Potency read?
Answer: inconclusive: 4.61 µM [inhibitor, partial curve]

Question: With `Cc1nnsc1-c1onc(C)c1C(=O)Nc1cc(Cl)cc(Cl)c1` as the compound, how does the Potency read?
Answer: active: 16.4 µM

Question: For `O=[N+]([O-])c1cccc(S(=O)(=O)NCCOc2cccc3cccnc23)c1`, which Potency is on record?
Answer: inconclusive: 10.3 µM [inhibitor, partial curve, poor fit]

Question: Which Potency does the source give for `N#CCSc1nc(-c2ccccc2)c2cc(Cl)ccc2n1` here?
Answer: inconclusive: 29.1 µM [activator, single point]

Question: Which Potency does the source give for `Cc1noc(C)c1COc1ccccc1C(=O)N(C)Cc1ccco1` here?
Answer: inconclusive: 23.1 µM [activator, single point]

Question: For `CC(C)C[C@H]1CN=C(Nc2ccccc2)N1CCCCc1ccccc1`, which Potency is on record?
Answer: inactive

Question: Which Potency does the source give for `COC(=O)c1ccc(CSc2nnc(C)s2)cc1` here?
Answer: inconclusive: 35.5 µM [activator, single point]

Question: With `N/C(=N\OC(=O)CC1CCCCC1)c1ccccn1` as the compound, how does the Potency read?
Answer: inconclusive: 18.4 µM [activator, partial curve]

Question: Which Potency does the source give for `O=C(/C=C/c1cccc(F)c1)Nc1cc(S(=O)(=O)N2CCOCC2)ccc1Cl` here?
Answer: active: 25.9 µM

Question: With `CCOc1ccc2c(c1)OC(c1ccccc1)(C(F)(F)F)NC2=O` (stereo not drawn) as the compound, how does the Potency read?
Answer: inactive

Question: For `CCCCC(NC(=O)Cc1c(C)c2cc3c4c(oc3cc2oc1=O)CCCC4)C(=O)O` (stereo not drawn), which Potency is on record?
Answer: inactive

Question: For `CCOc1ccccc1NC(=O)C(CC)Sc1nc2ccsc2c(=O)n1CCC(=O)O` (stereo not drawn), which Potency is on record?
Answer: inconclusive: 25.9 µM [activator, single point]

Question: Which Potency does the source give for `COc1ccc(-c2nc3ccccn3c2NC2CCCCC2)cc1SC1CCCCC1` here?
Answer: inconclusive: 31.6 µM [inhibitor, single point]

— PubChem BioAssay AID504467 (National Center for Advancing Translational Sciences (NCATS), 2011)
